Consider 2 substances from publication PMC4426952.

Amino acid sequences for entries named in this document (tags omitted). Residues count along the entry.
UniProt P40763: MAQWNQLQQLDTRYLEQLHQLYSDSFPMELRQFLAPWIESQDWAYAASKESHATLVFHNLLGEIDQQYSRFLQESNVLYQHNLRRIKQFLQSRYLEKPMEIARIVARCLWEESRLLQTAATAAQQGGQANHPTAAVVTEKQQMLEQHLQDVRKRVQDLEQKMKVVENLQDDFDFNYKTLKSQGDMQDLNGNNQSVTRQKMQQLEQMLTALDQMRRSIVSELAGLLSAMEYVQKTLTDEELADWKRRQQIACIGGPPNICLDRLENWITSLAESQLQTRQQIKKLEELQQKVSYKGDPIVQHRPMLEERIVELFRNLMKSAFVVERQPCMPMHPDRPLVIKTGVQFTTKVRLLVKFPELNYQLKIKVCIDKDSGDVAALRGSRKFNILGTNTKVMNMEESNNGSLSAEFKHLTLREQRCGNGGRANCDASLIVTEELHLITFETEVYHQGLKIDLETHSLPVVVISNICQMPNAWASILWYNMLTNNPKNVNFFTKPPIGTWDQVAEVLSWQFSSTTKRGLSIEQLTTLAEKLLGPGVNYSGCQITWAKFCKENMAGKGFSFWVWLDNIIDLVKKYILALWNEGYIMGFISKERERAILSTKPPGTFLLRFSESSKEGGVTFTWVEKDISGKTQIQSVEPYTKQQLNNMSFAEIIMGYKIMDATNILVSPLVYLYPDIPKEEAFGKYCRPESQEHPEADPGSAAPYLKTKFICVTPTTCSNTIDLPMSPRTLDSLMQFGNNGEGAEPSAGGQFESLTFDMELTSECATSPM
UniProt P28799, residues 18-593: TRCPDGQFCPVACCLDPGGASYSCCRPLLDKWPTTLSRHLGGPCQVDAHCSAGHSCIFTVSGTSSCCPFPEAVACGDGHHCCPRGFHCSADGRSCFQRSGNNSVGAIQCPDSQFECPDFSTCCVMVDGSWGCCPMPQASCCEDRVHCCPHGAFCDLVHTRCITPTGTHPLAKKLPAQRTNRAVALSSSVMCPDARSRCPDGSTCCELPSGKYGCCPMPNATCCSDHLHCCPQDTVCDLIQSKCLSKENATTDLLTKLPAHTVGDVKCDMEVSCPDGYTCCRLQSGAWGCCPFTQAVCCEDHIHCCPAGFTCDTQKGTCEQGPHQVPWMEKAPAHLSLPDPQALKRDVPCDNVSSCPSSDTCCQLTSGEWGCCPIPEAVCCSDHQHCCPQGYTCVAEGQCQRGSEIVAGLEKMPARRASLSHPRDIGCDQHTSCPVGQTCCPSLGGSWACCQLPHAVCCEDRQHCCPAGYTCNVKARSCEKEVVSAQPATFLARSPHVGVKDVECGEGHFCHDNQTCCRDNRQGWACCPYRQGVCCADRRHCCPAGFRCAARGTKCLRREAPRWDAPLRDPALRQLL

For test [1], the target named is signal transducer and activator of transcription 3 (STAT3) (human (endogenous in MDA-MB-468, SUM159PT, SK-BR-3)) (UniProt P40763). Briefly: co-IP; endogenous STAT3 precipitated with anti-STAT3 (or non-specific IgG) from SK-BR-3 lysates (no constitutively active PY-STAT3), without cytokine stimulation, immunoblot for GRN.
Test [2] has the same target. Description: co-IP; endogenous STAT3 precipitated with anti-STAT3 (or non-specific IgG) from MDA-MB-468 and SUM159PT lysates, immunoblot for GRN; lysis buffer 50 mM Tris pH 7.5, 150 mM NaCl, 0.5% NP40, 4 °C.
Test [3] concerns the target human GRN, transiently expressed (Human GRN/pcDNA3.1v5HIS-TOPO) (human) (UniProt P28799). Description: co-IP; reciprocal co-immunoprecipitation in TNBC cells transiently expressing GRN.

Results are given in words; binding and its absence hold for the method and conditions named. Binding seen in cells or lysates may run through a third protein. Some results given as binding are weak or reduced against the parent protein; the word gives no strength.

For “granulin (GRN) (from UniProt P28799 18-593)”, the binding result in test [1] and in test [2] was “binds” throughout.
As for “signal transducer and activator of transcription 3 (STAT3) (from UniProt P40763 1-770)”, in test [3], the binding result is reported as “binds”.
